Test results reported in patent US20040053278A1.
No constants are given. Whether binding was seen depends on the method and setting. For some of these results: Binding seen in cells or lysates may run through a third protein. Some results given as binding are weak or reduced against the parent protein; the word gives no strength. Tags and fused reporters may be left off the sequences shown.

How the values were obtained:
[1] = target: T1, activin type IB receptor (ActR-IB), wild type (UniProt P36896); test: affinity cross-linking and immunoprecipitation
T1 sequence (looked up): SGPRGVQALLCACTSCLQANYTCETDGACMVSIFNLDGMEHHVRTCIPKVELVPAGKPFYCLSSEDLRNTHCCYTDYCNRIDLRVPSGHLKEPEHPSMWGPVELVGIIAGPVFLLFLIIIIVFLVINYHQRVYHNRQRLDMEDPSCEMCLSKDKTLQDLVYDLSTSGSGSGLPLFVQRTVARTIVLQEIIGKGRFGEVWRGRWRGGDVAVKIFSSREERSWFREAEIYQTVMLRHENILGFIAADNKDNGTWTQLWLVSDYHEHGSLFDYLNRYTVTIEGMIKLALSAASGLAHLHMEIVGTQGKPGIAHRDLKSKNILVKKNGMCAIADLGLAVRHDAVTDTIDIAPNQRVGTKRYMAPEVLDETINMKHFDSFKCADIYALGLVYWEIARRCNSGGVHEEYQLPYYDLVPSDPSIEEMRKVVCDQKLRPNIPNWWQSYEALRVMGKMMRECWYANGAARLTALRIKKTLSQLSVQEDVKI

[2] = target: T2, wild type (wt) HA-tagged TβR-I (UniProt P36897); test: affinity cross-linking and immunoprecipitation
T2 sequence (looked up): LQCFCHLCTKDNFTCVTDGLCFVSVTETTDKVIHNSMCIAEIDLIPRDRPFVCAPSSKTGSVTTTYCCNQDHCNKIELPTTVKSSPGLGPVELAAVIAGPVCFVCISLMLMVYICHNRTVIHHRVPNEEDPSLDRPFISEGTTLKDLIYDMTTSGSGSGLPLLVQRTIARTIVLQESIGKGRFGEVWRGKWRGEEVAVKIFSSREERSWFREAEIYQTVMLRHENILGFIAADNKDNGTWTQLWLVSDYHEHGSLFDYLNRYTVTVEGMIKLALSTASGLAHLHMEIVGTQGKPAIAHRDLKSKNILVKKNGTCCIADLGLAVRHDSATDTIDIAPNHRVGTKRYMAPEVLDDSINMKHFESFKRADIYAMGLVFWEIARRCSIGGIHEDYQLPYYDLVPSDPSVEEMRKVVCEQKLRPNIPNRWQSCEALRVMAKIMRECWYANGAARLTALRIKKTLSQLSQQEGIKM

[3] = target: T3, activin type IB receptor (ActR-IB), kinase-defective (UniProt P36896); test: affinity cross-linking with 125I-activin A, immunoprecipitation, autoradiography
T3 sequence (looked up): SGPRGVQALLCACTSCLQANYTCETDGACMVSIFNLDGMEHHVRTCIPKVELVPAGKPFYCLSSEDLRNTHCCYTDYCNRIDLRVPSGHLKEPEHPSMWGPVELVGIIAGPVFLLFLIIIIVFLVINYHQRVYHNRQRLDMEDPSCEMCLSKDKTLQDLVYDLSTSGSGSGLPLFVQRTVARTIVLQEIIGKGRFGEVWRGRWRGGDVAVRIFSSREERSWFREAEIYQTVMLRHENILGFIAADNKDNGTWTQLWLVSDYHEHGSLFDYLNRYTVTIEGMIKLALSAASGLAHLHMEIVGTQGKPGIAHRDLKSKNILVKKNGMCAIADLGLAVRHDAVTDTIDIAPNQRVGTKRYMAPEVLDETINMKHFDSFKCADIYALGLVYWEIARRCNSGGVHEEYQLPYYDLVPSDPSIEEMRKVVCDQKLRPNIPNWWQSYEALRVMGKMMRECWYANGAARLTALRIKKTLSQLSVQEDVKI

[4] = target: T1, activin type IB receptor (ActR-IB), wild type; test: as above
[5] = target: TGF-β receptor complexes (UniProt P36897); test: affinity cross-linking with 125I-TGF-β1, coprecipitation from COS-7 lysates, autoradiography
[6] = target: T4, kinase-defective (KR) HA-tagged TβR-I (UniProt P36897); test: affinity cross-linking with 125I-TGF-β1, anti-FLAG immunoprecipitation from COS-7 lysates, autoradiography
T4 sequence (looked up): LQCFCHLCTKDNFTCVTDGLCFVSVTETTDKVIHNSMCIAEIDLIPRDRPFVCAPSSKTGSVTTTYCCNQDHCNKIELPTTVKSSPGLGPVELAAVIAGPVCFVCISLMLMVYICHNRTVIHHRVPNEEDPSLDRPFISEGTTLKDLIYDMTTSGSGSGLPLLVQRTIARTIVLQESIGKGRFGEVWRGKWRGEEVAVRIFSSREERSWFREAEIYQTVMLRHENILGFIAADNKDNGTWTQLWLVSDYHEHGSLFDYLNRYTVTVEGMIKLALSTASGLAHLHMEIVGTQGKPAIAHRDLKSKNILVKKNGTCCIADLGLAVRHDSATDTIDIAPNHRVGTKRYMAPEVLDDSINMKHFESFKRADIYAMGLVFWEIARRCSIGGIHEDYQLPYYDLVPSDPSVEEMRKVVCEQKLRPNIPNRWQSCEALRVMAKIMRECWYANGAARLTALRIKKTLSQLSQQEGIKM

[7] = target: T2, wild type (wt) HA-tagged TβR-I; test: as above

binding [1]: binds
binding [2]: binds
binding [3]: binds
binding [4]: binds
binding [5]: binds
binding [6]: binds
binding [7]: binds
B1: FLAG-tagged Smad6 (protein, not shown: small tags and cut ends)
chain: MFRSKRSGLVRRLWRSRVVPDREEGSGGGGGVDEDGSLGSRAEPAPRAREGGGCSRSEVRSVAPRRPRDAVGPRGAAIAGRRRRTGGLPRPVSESGAGAGGSPLDVAEPGGPGWLPESDCETVTCCLFSERDAAGAPRDSGDPQARQSPEPEEGGGPRSREARSRLLLLEQELKTVTYSLLKRLKERSLDTLLEAVESRGGVPGGCVLVPRADLRLGGQPAPPQLLLGRLFRWPDLQHAVELKPLCGCHSFTAAADGPTVCCNPYHFSRLCGPESPPPPYSRLSPPDQYKPLDLSDSTLSYTETEATNSLITAPGEFSDASMSPDATKPSHWCSVAYWEHRTRVGRLYAVYDQAVSIFYDLPQGSGFCLGQLNLEQRSESVRRTRSKIGFGILLSKEPDGVWAYNRGEHPIFVNSPTLDAPGGRALVVRKVPPGYSIKVFDFERSGLLQHADAAHGPYDPHSVRISFAKGWGPCYSRQFITSCPCWLEILLNNHR
